Measured values taken from PMC12412246.

The chains behind the UniProt entries cited, without tags or fusion partners.
UniProt P28574: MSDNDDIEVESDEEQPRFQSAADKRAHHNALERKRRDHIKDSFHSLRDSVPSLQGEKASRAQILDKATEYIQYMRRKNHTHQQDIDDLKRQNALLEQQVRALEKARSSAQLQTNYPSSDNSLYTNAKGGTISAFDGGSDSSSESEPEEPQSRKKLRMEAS
UniProt P50538: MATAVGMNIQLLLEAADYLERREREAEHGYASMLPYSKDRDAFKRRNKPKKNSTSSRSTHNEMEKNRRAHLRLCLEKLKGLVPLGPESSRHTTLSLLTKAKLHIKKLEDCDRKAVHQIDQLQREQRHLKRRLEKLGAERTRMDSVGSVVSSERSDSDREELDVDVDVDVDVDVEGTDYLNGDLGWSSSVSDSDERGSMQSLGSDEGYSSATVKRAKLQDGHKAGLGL

Target: FLAG-tagged MAX (UniProt P28574)
Test: affinity purification with mass spectrometry; C2C12 cells transfected with flag vector or MAX-flag plasmid, 48 h; lysis in 0.1% NP-40, 50 mM HEPES pH 7.5, 250 mM NaCl, 5 mM EDTA; anti-flag magnetic beads overnight at 4 °C; five washes; eluate analysed on Bruker timsTOF Pro; flag-MAX sample compared with flag-vector sample

Molecule: MXD1 (from UniProt P50538 1-227)
binding: no binding

B2: MNT (protein, UniProt O08789 1-591)
chain: MSIETLLEAARFLEWQAQQQQRAREEQERLRLEREREREQEQKRASNLARLAHALPVEEPRIEAPPLPLSPPAPPPAPPPPLATPAPLTVIPIPVVTNSPQSLPPPPPLPPAAQPLPLAPRQPALVSTPGLSIKEPVTLPTRPQVPTPAPLLPDAKTTVAPTGSPKPLQPLPAPILTIAPHPGVQPQLAPQQPPPPTLGTLKLAPAEEAKSSEQKKRPGGIGTREVHNKLEKNRRAHLKECFETLKRNIPNVDDKKTSNLSVLRTALRYIQSLKRKEKEYEHEMERLAREKIATQQRLAELKHELSQWMDVLEIDRVLRQTGQPEDDQASTSTASEGEDNVDEEMEGDRAGLGPPKLNHRPQPELLKSALPTPSTAPAPLPTHPHPHPHPVALSPAHLPVQQQQPPQQKTPLPAPPPPPATPTQTLVPAPAHLVATAGGGSTVIAHTATTHASVIQTVNHVLQGPGGKHIAHIAPSAPSPAVQLAPATPPIGHITVHPATLNHVAHLGSQLPLYPQPVAVSQPVAVSHIAHTLSHQQVNGTAGLGPPATVMAKPAVGAQVVHHPQLVGQTVLNPVTMVTMPSFPVSTLKLA
binding: no binding

More lines, now with the values ahead:

binding: no binding
B1: MXD4 (protein, UniProt Q60948 1-209)
chain: MELNSLLLLLEAAEYLERRDREAEHGYASMLPFDGDFARKKTKTAGLVRKGPNNRSSHNELEKHRRAKLRLYLEQLKQLGPLGPDSTRHTTLSLLKRAKMHIKKLEEQDRRALSIKEQLQREHRFLKRRLEQLSVQSVERVRTDSTGSAVSTDDSEQEVDIEGMEFGPGELDSAGSSSDADDHYSLQSSGCSDSSYGHPCRRPGCPGLS

binding: no binding
B3: MXI1 (protein, UniProt P50540 1-228)
chain: MERVRMINVQRLLEAAEFLERRERECEHGYASSFPSMPSPRLQHSKPPRRLSRAQKHSSGSSNTSTANRSTHNELEKNRRAHLRLCLERLKVLIPLGPDCTRHTTLGLLNKAKAHIKKLEEAERKSQHQLENLEREQRFLKRRLEQLQGPQEMERIRMDSIGSTISSDRSDSEREEIEVDVESTEFSHGEADSVSTTSISDLDDHSSLQSVGSDEGYSSASVKLSFAS

No constants are given. Whether binding was seen depends on the method and setting. Binding seen in cells or lysates may run through a third protein. A yes stands for co-enrichment or nearness to the bait. Other partners may have been found. A no says only that the protein was not detected with the bait. Each block holds one molecule with its values, some of them ahead of it.
